# This is one part of the list.
# Tested on: T1, CTL2-GFP (C. trachomatis L2/434/Bu, GFP-expressing)
# T1 construct: L2/434/Bu, GFP-expressing
# Set-up: species or system HeLa; Intracellular C. trachomatis growth in HeLa cells, bulk GFP fluorescence relative to DMSO
# Conditions: bulk GFP, single well; 28.5 h, 10 µM; inhibitor
row,SMILES,% of control remaining [%]
1,O=S(=O)(CCN1CCN(Cc2ccccc2)CC1)c1ccc(F)cc1 [CBK074809],61.9897
2,CC(C)NC(=O)C1(Cc2ccc(-c3ccccc3F)cc2)CCN(C(=O)C(C)C)CC1 [CBK285754],118.157
3,Cc1cc(S(=O)(=O)Nc2ccccc2-c2nncn2C)c(C)o1 [CBK306414],107.123
4,c1ccc(CCN2CCN(Cc3cccnc3)CC2)cc1 [CBK126424],125.174
5,CSc1nc2ccc(S(=O)(=O)NCCOc3ccc(Cl)cc3)cc2s1 [CBK268219],125.255
6,Cc1nn(-c2ccc(F)cc2)c2[nH]c(=O)c(CNC3CC3)cc12 [CBK283121],119.395
7,O=C(c1ccc(OC(F)(F)F)cc1)N1CCC2(CCCNC2)C1 (stereo not drawn) [CBK137156C],111.786
8,CN(C)CCn1c(C(=O)O)cc2ccccc21 [CBK268234C],91.7888
9,O=C(NC(c1ccccc1)c1ccccc1)N1CCCC(CO)C1 (stereo not drawn) [CBK156036],119.528
10,O=C1NC2(CCSCC2)Oc2ccccc21 [CBK007488],135.036
11,Cc1ccc(C(=O)NC(C)c2nc3ccccc3n2Cc2ccc(C(=O)O)o2)cc1 (stereo not drawn) [CBK295159],103.711
12,O=S(=O)(Nc1cccc(-c2nnn[nH]2)c1)c1ccc(F)cc1 [CBK050470],108.222
13,O=C(NC(Nc1cccc(C(F)(F)F)c1)C(=O)c1ccccc1)c1ccc(Cl)cc1 (stereo not drawn) [CBK263585],117.984
14,Cc1csc(NC(=O)Cc2ccccc2F)n1 [CBK288252],116.45
15,C=CCN(c1ccc(C(=O)O)cc1)S(=O)(=O)c1ccc(/C=C/C(=O)O)cc1 [CBK263364],121.525
16,CC(C(=O)NC1(C#N)CCCCC1)N1CCOC(c2nccs2)C1 (stereo not drawn) [CBK305299],130.47
17,Cc1nc(-c2ccccc2)c(CC(=O)N(C)CCN(C)C)s1 [CBK282725],150.41
18,OCc1ccccc1-c1nccnc1NCc1ccc2c(c1)OCO2 [CBK038046],98.6049
19,O=S(=O)(c1ccc(C2=CSC3=NCCN23)cc1)N1CCOCC1 [CBK019381],106.965
20,COc1cccc(C(CNS(=O)(=O)c2ccc3c(c2)OCCCO3)N(C)C)c1 (stereo not drawn) [CBK298270],138.099
21,COC(=O)Cn1c(-c2ccc(F)cc2)cc2cccnc21 [CBK282763],121.569

row,SMILES,% of control remaining [%]
1,O=C(Cc1ccc(Cl)c(Cl)c1)NC(c1ccccc1)c1ccccn1 (stereo not drawn) [CBK144110],100
2,O=C(Nc1ccc(N2CCNCC2)nc1)C1CCCO1 (stereo not drawn) [CBK004748T],136.101
3,CC(=O)N1CCc2sccc2C1c1ccc(NC(=O)c2ccco2)cc1 (stereo not drawn) [CBK286199],104.973
4,CC(C)(CN)CN(Cc1ccccc1C(F)(F)F)C(=O)Nc1ccc(C(C)(C)C)cc1 [CBK026828C],96.4652
5,CN1CCN(S(=O)(=O)c2cccc(C(F)(F)F)c2)CC1 [CBK062425],101.954
6,Cc1ccc(C(=O)N2CCC(Cc3ccccc3-c3ccccc3)(C(=O)N(C)C)CC2)s1 [CBK285677],124.932
7,CCn1cncc1CN1CCN(CC2(c3ccc(C)cc3)CC2)CC1 [CBK283307],130.161
8,CCNC(=O)C1(Cc2ccc(-c3cccs3)cc2)CCN(C(=O)Cc2ccccc2)CC1 [CBK285795],89.5094
9,COc1cc(C#N)ccc1Oc1nnnn1-c1ccccc1 [CBK002571],91.212
10,CCn1c(=O)[nH]c(=O)c2cnc(-c3ccc(OC)cc3)nc21 [CBK291259],91.2336
11,CC(C)(C)c1csc(C(=Cc2ccc(C#N)cc2)C(N)=O)n1 [CBK001154],94.0183
12,Cc1nc(-c2ccc(CCNC(=O)c3cc(O)nc4ccccc34)s2)cs1 [CBK297720],90.442
13,COc1ccc(-n2cc(-c3ccc(F)cc3)nn2)cc1OC [CBK113110],115.203
14,Fc1ccccc1CN(CCCn1ccnc1)Cc1ccco1 [CBK282952],102.631
15,O=C1NC(=O)C(CC(=O)N2CCC3(CCCNC3)C2)N1 (stereo not drawn) [CBK153232C],115.401
16,Cc1cc(C)c(OCCCN2CCCCCC2)c(Cl)c1 [CBK266026G],170.597
17,Cn1nccc1CN(Cc1ccc(F)cc1)Cc1cccnc1 [CBK282261],107.114
18,COc1ccc2[nH]c(NCCCO)nc2c1 [CBK264155],139.057
19,CCN1CCN(c2cc(C)nc3c(-c4ccccc4)cnn23)CC1 [CBK287793],108.181
20,COc1ccc(-c2cnc3[nH]c(=O)n(C4CC4)c3n2)cc1 [CBK064907],143.852
21,Cc1n[nH]c(C)c1CNC(=O)c1cccc2c(C)c(C)[nH]c12 [CBK283068],133.692

# Some of the entries so far, as tab-separated lines:
row	SMILES	% of control remaining [%]
1	O=C(Cc1ccc(Cl)c(Cl)c1)NC(c1ccccc1)c1ccccn1 (stereo not drawn) [CBK144110]	100
3	CC(=O)N1CCc2sccc2C1c1ccc(NC(=O)c2ccco2)cc1 (stereo not drawn) [CBK286199]	104.973
4	CC(C)(CN)CN(Cc1ccccc1C(F)(F)F)C(=O)Nc1ccc(C(C)(C)C)cc1 [CBK026828C]	96.4652
8	CCNC(=O)C1(Cc2ccc(-c3cccs3)cc2)CCN(C(=O)Cc2ccccc2)CC1 [CBK285795]	89.5094
9	COc1cc(C#N)ccc1Oc1nnnn1-c1ccccc1 [CBK002571]	91.212
13	COc1ccc(-n2cc(-c3ccc(F)cc3)nn2)cc1OC [CBK113110]	115.203
18	COc1ccc2[nH]c(NCCCO)nc2c1 [CBK264155]	139.057

# Next structures

row,SMILES,% of control remaining [%]
1,O=C(O)CCSc1nc2ccccc2n1-c1ccccc1 [CBK264215],126.574
2,Cc1nc(N2CCOCC2)[nH]c(=O)c1CCC(=O)Nc1ccc(F)cc1 [CBK304990],103.628
3,COc1ccc(CCC(=O)N2CCC(N(C)Cc3ccc(-c4ccc(S(C)(=O)=O)cc4)nc3)CC2)cc1Cl [CBK164102T],92.9512
4,CC(C)[C@H](CO)n1c(=O)[nH]c2ncc(-c3cccc(CO)c3)nc21 [CBK065001],146.229
5,COc1ccc(-c2ccc3ccc(NC(=O)C(C)C)nc3n2)cc1C [CBK073665],121.207
6,CCCCC(=O)NC(c1ccccc1OC)c1cc(Cl)c2cccnc2c1O (stereo not drawn) [CBK110947],117.584
7,COCCN1CC(CNC(=O)c2ccc(N3CCCC3)c(Cl)c2)CC1=O (stereo not drawn) [CBK307680],114.233
8,Brc1cncc2c1ccn2CCN1CCOCC1 [CBK083479],137.974
9,NC(=O)CN1CCC(Oc2cncc(OCc3cccnc3)n2)C1 (stereo not drawn) [CBK084459],108.77
10,O=C(O)CSc1nc2ccc([N+](=O)[O-])cc2[nH]1 [CBK265192],129.816
11,CC(=O)N1CCN(C(C(=O)O)c2cn(Cc3ccccc3)c3ccc(C(=O)O)cc23)CC1 (stereo not drawn) [CBK286648],117.74
12,CC1CCN(CC(C)(C)n2cncc2-c2cnn(C)c2)CC1 [CBK281738],93.5267
13,COc1ccc(C(=O)N2C[C@@H](C)O[C@@H](C)C2)c(OC)n1 [CBK200231],150.483
14,O=c1c(Cc2ccccc2)c(O)c2ccccc2n1Cc1ccccc1 [CBK219368],156.996
15,Cc1nn(C)c(C)c1CNC(=O)N1CCN(CC(F)F)CC1 [CBK304249],90.6336
16,Cc1cc(C)n2nc(C(=O)N3CCC(C)CC3c3ccco3)nc2n1 (stereo not drawn) [CBK305196],142.108
17,COc1ccnc(N2CCN(C(=O)c3c4c(nn3C)CCCC4)CC2)n1 [CBK304609],77.7198
18,CS(=O)(=O)Nc1ccccc1C(=O)NCCCN1CCOCC1 [CBK269745],98.9699
19,CCC(C)c1csc(C2CN3CCCC3CO2)n1 (stereo not drawn) [CBK304805],110.896
20,Cc1noc(C)c1CC(=O)NC(C)c1cc2cc(Cl)ccc2o1 (stereo not drawn) [CBK281445],122.822
21,COc1cc(Nc2nc(-c3cccc(C(=O)NCCN(C)C)c3)cn3ccnc23)cc(OC)c1OC [CBK066250],143.338

row,SMILES,% of control remaining [%]
1,COc1ccc(-n2nc([N+](=O)[O-])c(NCc3ccccn3)[n+]2[O-])cc1 [CBK268430],108.631
2,NC(=O)c1cccc(CNC2CCCN(c3cccnn3)C2)c1 (stereo not drawn) [CBK305115],72.1761
3,Cc1cc2ncc3c(n2n1)CC1CCC3N1C(=O)CCc1ccco1 (stereo not drawn) [CBK284380],117.785
4,COCCn1c(Cc2ccccc2)nnc1SCc1ccc2ccccc2c1 [CBK265985],169.941
5,Clc1ccc(OCc2ccccc2)c(CNCc2ccccn2)c1 [CBK269850C],90.2498
6,O=C(Nc1ccc(S(=O)(=O)Nc2ncccn2)cc1)c1ccc2c(c1)OCCO2 [CBK268132],36.9693
7,CSc1cc(CC(C)(C)C)c2cccc(F)c2n1 [CBK018791],122.453
8,O=C1N=C(NC2CCCCCC2)SC1CCNC(=O)N1CCOCC1 (stereo not drawn) [CBK067687],89.4467
9,O=C(Nc1cnccn1)c1ccc(Cl)cc1Cl [CBK056922],100.032
10,CCOC(=O)c1sc(-c2c(Cl)cc(C(F)(F)F)cc2Cl)nc1O [CBK078547],99.1695
11,O=C1NCC2(CCCN(C(=O)c3cccs3)C2)Oc2ccccc21 (stereo not drawn) [CBK284900],93.5128
12,Cn1c(N2CC[C@H](O)C2)nc2cc(C(=O)NCCc3cscn3)ccc21 [CBK306824],117.475
13,Cc1cnc(CNC(=O)N2CCN(C3CCN(C)CC3)CC2)cn1 [CBK155886],175.419
14,O=C(O)CN1C(=O)/C(=C\c2ccc(Oc3ccc(C(F)(F)F)cc3[N+](=O)[O-])cc2)SC1=S [CBK264809],128.078
15,C=CCN(CC=C)Cc1c(C)nc2ccc(CC)cc2c1O [CBK264998],131.292
16,CS(=O)(=O)c1ccc2ncnc(NCC(CO)Cc3ccccn3)c2c1 (stereo not drawn) [CBK306493],99.5911
17,O=C(CN1CCC2(CC1)CN(C(=O)CO)c1ccccc12)c1ccsc1 [CBK144605T],87.2352
18,O=C(COc1cccc(Br)c1)Nc1nnc[nH]1 [CBK264063],126.106

# Source: paper PMC12040169 (PLOS Biology, 2025)
